The list does not hold the whole screen: it is rich in T/C values a quarter to a half above the control, in often repeated tests (any T/C) and in doses without a T/C. Further doses and runs are listed elsewhere. T/C: endpoint of the treated group in % of that of the vehicle group. Schedule codes are those of the source, taken here to give the interval after Q, in days (D) or hours (H), and the number of doses after X. Some doses have a count of surviving animals in place of a T/C: the source holds a T/C of zero for them, seemingly a mark for toxic or unscored doses. Some doses without a T/C left all or most animals alive at the check, yet need not have been tolerated: survival well below the control is almost never listed, so the zero probably covers shortened survival too. Survivors were counted at the toxicity check, usually on the fifth day, unless a day is given; later deaths do not show. Where survival is the endpoint, the PubChem record calls one and a half times the control and up active, and a quarter to a half above the control has no call in these data; cut-offs in other NCI protocols can differ.
Test system: BDF1 mice, s.c. Lewis lung carcinoma, T/C %
Test: NCI In Vivo Anticancer Drug Screen. Data for tumor model Lewis Lung Carcinoma (subcutaneous) in B6D2F1 (BDF1) mice
Description: The antitumor activity of compounds was measured in mice bearing transplantable tumors. Survival or tumor size were measured and the results are expressed as the measurement made in the treated group (T) divided by the measurement made in the vehicle treated control group (C). The tumor model used in this assay is Lewis Lung Carcinoma (subcutaneous) in B6D2F1 (BDF1) mice

[1] = T/C endpoint: median survival time, dose: 6.0 mg/kg/injection, schedule: Q01DX009 (ip), vehicle: saline, higher T/C = longer survival

In the case of `Nc1ncn(C2OC(CO)C(O)C2O)c(=O)n1` (centres undefined), the survivor count (T/C endpoint: median survival time, dose: 0.75 mg/kg/injection, schedule: Q01DX009 (ip), vehicle: Klucel (hydroxypropylcellulose) (HPC), higher T/C = longer survival) is reported as 10 of 10, the survivor count (T/C endpoint: median survival time, dose: 1.5 mg/kg/injection, schedule: Q01DX009 (ip), vehicle: Klucel (hydroxypropylcellulose) (HPC), higher T/C = longer survival) is reported as 10 of 10 and the survivor count (T/C endpoint: median survival time, dose: 1.5 mg/kg/injection, schedule: Q01DX009 (ip), vehicle: saline, higher T/C = longer survival) is reported as 10 of 10. The survivor count (T/C endpoint: median survival time, dose: 3.0 mg/kg/injection, schedule: Q01DX009 (ip), vehicle: Klucel (hydroxypropylcellulose) (HPC), higher T/C = longer survival) was 8 of 10, the survivor count (T/C endpoint: median survival time, dose: 3.0 mg/kg/injection, schedule: Q01DX009 (ip), vehicle: saline, higher T/C = longer survival) was 9 of 10 and the survivor count (T/C endpoint: median survival time, dose: 6.0 mg/kg/injection, schedule: Q01DX009 (ip), vehicle: Klucel (hydroxypropylcellulose) (HPC), higher T/C = longer survival) was 7 of 10. The survivor count [1] was 10 of 10 and the survivor count (T/C endpoint: median tumor weight (est.), dose: 6.0 mg/kg/injection, schedule: Q01DX009 (ip), vehicle: saline, higher T/C = larger tumour) was 5 of 10.

`NC(=NCc1ccccc1)c1ccc(N=C(N)c2ccc(C(N)=Nc3ccc(C(N)=NCc4ccccc4)cc3)cc2)cc1` was tested, and the survivor count (T/C endpoint: median survival time, dose: 20.0 mg/kg/injection, schedule: Q01DX009 (ip), vehicle: saline, higher T/C = longer survival) was 10 of 10.

For `O=C(O)C(O)C(O)C1[O][Sb][O]C1CO` (centres undefined), the survivor count (T/C endpoint: median survival time, dose: 200.0 mg/kg/injection, schedule: Q01DX009 (ip), vehicle: saline, higher T/C = longer survival) was 8 of 10 and the survivor count (T/C endpoint: median survival time, dose: 400.0 mg/kg/injection, schedule: Q01DX009 (ip), vehicle: saline, higher T/C = longer survival) was 1 of 10.

For `Nc1nc(N)c2nc(CNc3ccc(C(=O)NC(CCC(=O)O)C(=O)O)cc3)cnc2n1` (centres undefined), the survivor count (T/C endpoint: mean tumor weight, dose: 0.16 mg/kg/injection, schedule: Q01DX011 (ip), vehicle: other, higher T/C = larger tumour) was 4 of 7 and the T/C (T/C endpoint: mean tumor weight, dose: 10.0 micrograms/kg/injection, schedule: Q01DX011 (ip), vehicle: saline, evaluated on day 12, higher T/C = larger tumour) was 126 % of control.

`COC1=CC(=O)N(C(=O)C2CSC(C(CO)NC(=O)c3csc(/C=N/O)n3)=N2)C1` (centres undefined) was tested, and the survivor count (T/C endpoint: median survival time, dose: 400.0 mg/kg/injection, schedule: Q01DX009 (ip), vehicle: Klucel (hydroxypropylcellulose) (HPC), higher T/C = longer survival) was 10 of 10.

`O=C1N[C@@H]([C@H]2CC[C@H](Cl)CN2)C(=O)N[C@H]1[C@H]1CC[C@H](Cl)CN1` was tested, and the survivor count (T/C endpoint: median survival time, dose: 4.0 mg/kg/injection, schedule: Q01DX009 (ip), vehicle: saline, higher T/C = longer survival) was 10 of 10, the survivor count [1] was 10 of 10 and the survivor count (T/C endpoint: median survival time, dose: 10.0 mg/kg/injection, schedule: Q04DX003 (ip), vehicle: saline, higher T/C = longer survival) was 10 of 10.

With `FCCNC1CCCCC1` the T/C (T/C endpoint: mean tumor weight, dose: 3.0 mg/kg/injection, schedule: Q01DX011 (ip), vehicle: carboxymethylcellulose (CMC), evaluated on day 12, higher T/C = larger tumour) was 126 % of control.

For `[N-]=[N+]=CC(=O)CCC(N)C(=O)O` (centres undefined), the survivor count (T/C endpoint: median survival time, dose: 0.3 mg/kg/injection, schedule: Q01DX009 (ip), vehicle: saline, higher T/C = longer survival) was 10 of 10, the T/C (T/C endpoint: median survival time, dose: 23.0 mg/kg/injection, schedule: Q04DX003 (ip), vehicle: saline, higher T/C = longer survival) was 133 % of control and the survivor count (T/C endpoint: median survival time, dose: 34.0 mg/kg/injection, schedule: Q04DX003 (ip), vehicle: saline, higher T/C = longer survival) was 10 of 10. For the same compound, the survivor count (T/C endpoint: median survival time, dose: 51.0 mg/kg/injection, schedule: Q04DX003 (ip), vehicle: saline, higher T/C = longer survival) was 10 of 10 and the T/C (T/C endpoint: median survival time, dose: 140.0 mg/kg/injection, schedule: Q01DX001 (ip), vehicle: saline, higher T/C = longer survival) was 135 % of control.

In the case of `O=C(O)C1CCCCN1` (centres undefined), the T/C (T/C endpoint: mean tumor weight, dose: 200.0 mg/kg/injection, schedule: Q01DX011 (ip), vehicle: other, evaluated on day 12, higher T/C = larger tumour) is reported as 129 % of control.

With `ClCCN(CCCl)CC(Cl)COc1cccc2ccccc12` (centres undefined) the survivor count (T/C endpoint: median survival time, dose: 40.0 mg/kg/injection, schedule: Q01DX009 (ip), vehicle: Klucel (hydroxypropylcellulose) (HPC), higher T/C = longer survival) was 10 of 10.

With `Nc1nc2nc[nH]c2c(=O)[nH]1` the survivor count (T/C endpoint: mean tumor weight, dose: 200.0 mg/kg/injection, schedule: Q01DX011 (ip), vehicle: saline, higher T/C = larger tumour) was 3 of 6 and the survivor count (T/C endpoint: mean tumor weight, dose: 400.0 mg/kg/injection, schedule: Q01DX011 (ip), vehicle: saline, higher T/C = larger tumour) was 0 of 6.

For `N#Cc1ccc(S(N)(=O)=O)cc1`, the survivor count (T/C endpoint: mean tumor weight, dose: 50.0 mg/kg/injection, schedule: Q01DX011 (ip), vehicle: carboxymethylcellulose (CMC), higher T/C = larger tumour) was 3 of 6, the survivor count (T/C endpoint: mean tumor weight, dose: 100.0 mg/kg/injection, schedule: Q01DX011 (ip), vehicle: carboxymethylcellulose (CMC), higher T/C = larger tumour) was 0 of 6 and the survivor count (T/C endpoint: mean tumor weight, dose: 200.0 mg/kg/injection, schedule: Q01DX011 (ip), vehicle: carboxymethylcellulose (CMC), higher T/C = larger tumour) was 0 of 6.

In the case of `O=CN(O)CC(=O)O`, the T/C (T/C endpoint: median survival time, dose: 1500.0 mg/kg/injection, schedule: Q01DX001 (ip), vehicle: saline, higher T/C = longer survival) is reported as 131 % of control.

In the case of `COc1cc2c(c(OC)c1OC)-c1ccc(OC)c(=O)cc1[C@@H](NC(C)=O)CC2`, the survivor count (T/C endpoint: mean tumor weight, dose: 0.5 mg/kg/injection, schedule: Q01DX011 (ip), vehicle: saline, higher T/C = larger tumour) is reported as 3 of 6, the survivor count (T/C endpoint: mean tumor weight, dose: 1.0 mg/kg/injection, schedule: Q01DX011 (ip), vehicle: saline, higher T/C = larger tumour) is reported as 0 of 6 and the survivor count (T/C endpoint: mean tumor weight, dose: 2.0 mg/kg/injection, schedule: Q01DX011 (ip), vehicle: saline, higher T/C = larger tumour) is reported as 0 of 6. For the same compound, the survivor count (T/C endpoint: mean tumor weight, dose: 4.0 mg/kg/injection, schedule: Q01DX011 (ip), vehicle: saline, higher T/C = larger tumour) was 0 of 6, the survivor count (T/C endpoint: mean tumor weight, dose: 8.0 mg/kg/injection, schedule: Q01DX011 (ip), vehicle: saline, higher T/C = larger tumour) was 0 of 6 and the survivor count (T/C endpoint: median survival time, dose: 1.0 mg/kg/injection, schedule: Q01DX009 (ip), vehicle: saline, higher T/C = longer survival) was 10 of 10. For the same compound, the survivor count (T/C endpoint: median survival time, dose: 2.0 mg/kg/injection, schedule: Q01DX009 (ip), vehicle: saline, higher T/C = longer survival) was 2 of 10.

With `CCCCCCCCSC1=C(Cl)C(=O)C(OC)=C(OC)C1=O` the T/C (T/C endpoint: median survival time, dose: 3.13 mg/kg/injection, schedule: Q01DX009 (ip), vehicle: other, higher T/C = longer survival) was 125 % of control, the survivor count (T/C endpoint: median survival time, dose: 6.25 mg/kg/injection, schedule: Q01DX009 (ip), vehicle: other, higher T/C = longer survival) was 10 of 10 and the survivor count (T/C endpoint: median survival time, dose: 25.0 mg/kg/injection, schedule: Q01DX009 (ip), vehicle: other, higher T/C = longer survival) was 10 of 10. For the same compound, the survivor count (T/C endpoint: median survival time, dose: 37.5 mg/kg/injection, schedule: Q01DX009 (ip), vehicle: other, higher T/C = longer survival) was 10 of 10.

In the case of `C=C1C(=O)O[C@H]2C1[C@H](OC(=O)/C(C)=C\COC(C)=O)C[C@]1(CO1)[C@@H]1[C@H](O)[C@H]3O[C@@]3(C)[C@@H]12` (some centres undefined), the survivor count (T/C endpoint: median survival time, dose: 50.0 mg/kg/injection, schedule: Q01DX009 (ip), vehicle: other, higher T/C = longer survival) is reported as 6 of 10.

`CCOc1ccccc1C1N(Cc2ccc(OC)cc2)CCCN1Cc1ccc(OC)cc1` was tested, and the T/C (T/C endpoint: mean tumor weight, dose: 250.0 mg/kg/injection, schedule: Q01DX011 (ip), vehicle: other, evaluated on day 12, higher T/C = larger tumour) was 137 % of control.

In the case of `O=NN(CCCl)C(=O)Nc1ccc2c(c1)OCO2`, the survivor count (T/C endpoint: median survival time, dose: 12.5 mg/kg/injection, schedule: Q01DX009 (ip), vehicle: saline with Tween-80, higher T/C = longer survival) is reported as 10 of 10, the survivor count (T/C endpoint: median survival time, dose: 25.0 mg/kg/injection, schedule: Q01DX009 (ip), vehicle: saline with Tween-80, higher T/C = longer survival) is reported as 10 of 10 and the survivor count (T/C endpoint: median survival time, dose: 50.0 mg/kg/injection, schedule: Q01DX009 (ip), vehicle: saline with Tween-80, higher T/C = longer survival) is reported as 10 of 10. The survivor count (T/C endpoint: median survival time, dose: 100.0 mg/kg/injection, schedule: Q01DX009 (ip), vehicle: saline with Tween-80, higher T/C = longer survival) was 10 of 10.

In the case of `O=C1C2C3CCC(O3)C2C(=O)N1c1nccs1` (centres undefined), the survivor count (T/C endpoint: mean tumor weight, dose: 250.0 mg/kg/injection, schedule: Q01DX011 (ip), vehicle: carboxymethylcellulose (CMC), higher T/C = larger tumour) is reported as 1 of 6 and the survivor count (T/C endpoint: mean tumor weight, dose: 500.0 mg/kg/injection, schedule: Q01DX011 (ip), vehicle: carboxymethylcellulose (CMC), higher T/C = larger tumour) is reported as 0 of 6.

For `COc1cc(C=Nc2ccc(-c3nc(Cc4ccccc4)sc3C)cc2)ccc1N(CCCl)CCCl`, the survivor count (T/C endpoint: median survival time, dose: 50.0 mg/kg/injection, schedule: Q01DX009 (ip), vehicle: Klucel (hydroxypropylcellulose) (HPC), higher T/C = longer survival) was 10 of 10 and the survivor count (T/C endpoint: median survival time, dose: 100.0 mg/kg/injection, schedule: Q01DX009 (ip), vehicle: Klucel (hydroxypropylcellulose) (HPC), higher T/C = longer survival) was 9 of 10.

With `C/C=C(\C)c1cc(=O)c2c(C)cc3c(c2o1)C(=O)c1c(O)c(C2CC(C)(N(C)C)C(O)C(C)O2)cc(C2CC(N(C)C)C(O)C(C)O2)c1C3=O` (centres undefined) the survivor count (T/C endpoint: median survival time, dose: 1.0 mg/kg/injection, schedule: Q01DX009 (ip), vehicle: Klucel (hydroxypropylcellulose) (HPC), higher T/C = longer survival) was 10 of 10 and the survivor count (T/C endpoint: median survival time, dose: 4.0 mg/kg/injection, schedule: Q01DX009 (ip), vehicle: Klucel (hydroxypropylcellulose) (HPC), higher T/C = longer survival) was 10 of 10.

Reference: PubChem BioAssay AID270 (DTP/NCI, 2004)
